In paper PMC3975624:
No constants are given. Whether binding was seen depends on the method and setting. Binding seen in cells or lysates may run through a third protein. Some binding calls cover weakened binding; strength is not graded here. Tags and fused reporters may be left off the sequences shown.

T1: Mic10-His6 (S. cerevisiae) (UniProt Q96VH5)
T1 sequence: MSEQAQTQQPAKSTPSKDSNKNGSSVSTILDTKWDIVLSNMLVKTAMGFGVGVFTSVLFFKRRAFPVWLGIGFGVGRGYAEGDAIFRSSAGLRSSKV

B1: Mic12 (protein, UniProt P38341 1-106)
chain: MSKLGPLARSVKWTLSVGVIGSVFYLYRYSNNGYFYDHDATWLKQDHQVQDLVDRKEVVPGETRNRKLVVTDDGTAWSRTMGESIKDIWNEQIRNSVDWIYSWGKN
B2: Mic19 (protein, UniProt P43594 1-170)
chain: MGSNTSKVGAGAEKQQVYTPLTQIDFSQSLVSQLDSSKESDYVTKQNAEKFIEKKVSQRLSNLEVETLKKFEDTLNNSLLSDDDKDAVDGISSSSLNNQIESLNKKLTLFDQLELQKLEKYGGAKGKSDKKTDNGSISIKAKLTECLLANKGKPLNCYEEMEEFKKLVMG
B3: Mic27 (protein, UniProt P50945 1-234)
chain: MVNFYDDVDESKSHGEFPLIPVVLQNSSELSVRTIPTGNEIIESVHLTKWLRKYRNALASQLDRYEKGWQSKIANFRLQVQHVINYSRKNIFNVDSENKHTVVPGSLIALGAFFAGSIAVNRSNWGAKRLIFGHKSSILEKLCTSLPSRILLPWVLAAATFKYWAPQTSQNLVNATENDLLPADFVKSYHNTWKRIYEEGYVAKKCDLKRQIDQTLQKNIRYAREQLYEKLEQA
B4: Mic26 (protein, UniProt P50087 1-233)
chain: MTKDFYRQLDPVEEKIVPPENAIVISSEAKEATVNEKEAKQGVLSQRVMKYIGENELVDGISVRDPDYLKRFFNERRKQFSAKWDKVTNKIDDIAGRYYAREESFTSTIASLHTDPNERLIPGLLSILVASMTGSVLARRRTWLLRATMPIILGSCCFAYAMPTTFRNTMGLIHNLEMNTFPHFTERQDRVWKETKRLSTASVQYYYDAKKWLNKDVEKTGNAIKNWTGVNVK
B5: Mic60 (protein, UniProt P36112 18-540)
chain: ASINTGTTVASKKASHKFRNTLWTIALSATAFYAGGIIYSQKNDKFGDFFSNNVPFAEDLLETYEHYHDRPTLFLEDSWDGLKAKSNDLLSGLTGSSQTRRSNRENIEVKKILSLEPLNIETENSDPQLKEIIGSLNDLINSLNDSNLSIPESEFNSIKKSNQNMLTNLSQLNETLKEALSNYMIQRTSEVITELNTQYENSKREFEKNLQKNLLQEVDEFKENLTKQKDKELEEKLKANEELLQAKHANEVGLLSITQVKEFNKIIKDKIEKERNGRLAHLEEINSEVNDLSKSIDRSSKILSKNEALVQLTFQVDEIKSRINNNNLPDVNIDKELSRLKLLSNLLSTFNKKSCCDDGDCCSCKKGNKNEGKEGKISCKCKPKTNPPSLLSVALDELESTCSGKKILSNEQIYNRWNLLADDFKTASLLPPNSGILGQLTAKVFSLFLFTKTGNPSNATDFDSVYARVGDNLRVSNLNDAVEEVVSLKGWPHKVCESWIEDARRKLEVQRLVEILDCEIRTL

biological target: T1, Mic10-His6 (S. cerevisiae); test: pull-down; mitochondria (1 mg protein) from a strain expressing Mic10-His6 lysed with 1% digitonin (50 mM potassium phosphate, 50 mM NaCl, 10 mM imidazole, pH 8.0, 1 mM PMSF); Ni-NTA beads; bound proteins eluted with Laemmli buffer with 300 mM imidazole; immunoblotting

binding, binds:
B1
B2
B3
B4
B5
